Consider 20 molecules from PubChem BioAssay AID342 (DTP/NCI, 2004).

The list does not hold the whole screen: it is rich in T/C values a quarter to a half above the control, in often repeated tests (any T/C) and in doses without a T/C. Other doses and runs of a compound stand elsewhere. T/C: endpoint of the treated group in % of that of the vehicle group. Schedules are NCI's codes, read here as Q, the interval in days (D) or hours (H), X, the number of doses. Some T/C values carry the count of animals alive at the toxicity check (mostly the fifth day); without a count, all were alive then. Some entries were tested several times; their values stand side by side, smallest first. Some schedule codes hold Z or #, which are not explained here. Some doses have a count of surviving animals in place of a T/C: the source holds a T/C of zero for them, seemingly a mark for toxic or unscored doses. Survivors were counted at the toxicity check, usually on the fifth day, unless a day is given; later deaths do not show.

In this assay the test system is Swiss mice, Sarcoma 180 sc, mean tumor weight T/C. Briefly: NCI In Vivo Anticancer Drug Screen. Data for tumor model Sarcoma 180 (subcutaneous) in Swiss mice. The settings on record: T/C endpoint: mean tumor weight, higher T/C = larger tumour; for T/C: evaluated on day 8. Put shortly:
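T/C ratio: treated over vehicle-treated controls, measuring survival or tumor size in transplanted-tumor mice.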

The mark [1] stands for this setting: dose: 8.8 mg/kg/injection, schedule: Q#A X014 (sc), vehicle: steroid suspending solution.
Where [2] appears, read: dose: 1.25 mg/kg/injection, schedule: Q#A X014 (ip), vehicle: methylcellulose (MC).
Setting [3] is: dose: 2.5 mg/kg/injection, schedule: Q#A X014 (ip), vehicle: methylcellulose (MC).
Where [4] appears, read: dose: 3.75 mg/kg/injection, schedule: Q#A X014 (ip), vehicle: methylcellulose (MC).
The mark [5] stands for this setting: dose: 150.0 mg/kg/injection, schedule: Q01DX007 (ip), vehicle: carboxymethylcellulose (CMC).

Regarding `O=C1N(Cl)C(=O)C(c2ccccc2)(c2ccc(F)cc2)N1Cl` (stereo not drawn), the T/C (dose: 27.5 mg/kg/injection, schedule: Q#A X014 (ip), vehicle: methylcellulose (MC)) was 132 % of control [5 of 6 alive].
On to `CC(/C=N\N=C(N)N)=N/N=C(N)N`, for which the T/C was 127 % of control (dose: 5.26 mg/kg/injection, schedule: Q01DX007 (ip), vehicle: carboxymethylcellulose (CMC)); 135 % of control (dose: 10.52 mg/kg/injection, schedule: Q01DX007 (ip), vehicle: carboxymethylcellulose (CMC)); 125 % of control (dose: 21.05 mg/kg/injection, schedule: Q01DX007 (ip), vehicle: carboxymethylcellulose (CMC)).
With `CC(=O)NNC(=O)c1ccccn1`, the survivor count (dose: 300.0 mg/kg/injection, schedule: Q01DX007 (ip), vehicle: water) is given as 1 of 6.
Regarding `CC1(c2ccccc2)O[C@@H]2C[C@H]3[C@@H]4CCC5=CC(=O)C=C[C@]5(C)[C@@]4(F)[C@@H](O)C[C@]3(C)[C@]2(C(=O)CO)O1` (stereo partly drawn), the survivor count (dose: 5.85 mg/kg/injection, schedule: Q#A X014 (sc), vehicle: steroid suspending solution) is on record as 4 of 7; the survivor count under setting [1] was 3 of 6 and 4 of 7; the survivor count (dose: 19.8 mg/kg/injection, schedule: Q#A X014 (sc), vehicle: steroid suspending solution) is 2 of 7. Further, the T/C under setting [1] was 18 and 79 % of control.
Take `CC/C(=C(/CC)c1ccc(O)cc1)c1ccc(O)cc1`: the survivor count runs as follows: (dose: 70.8 mg/kg/injection, schedule: Q01DX007 (sc), vehicle: steroid suspending solution) 4 of 10; (dose: 88.5 mg/kg/injection, schedule: Q01DX007 (sc), vehicle: steroid suspending solution) 3 of 10; (dose: 118.0 mg/kg/injection, schedule: Q01DX007 (sc), vehicle: steroid suspending solution) 4 of 10; (dose: 177.0 mg/kg/injection, schedule: Q01DX007 (sc), vehicle: steroid suspending solution) 5 of 10; (dose: 192.0 mg/kg/injection, schedule: Q01DX007 (sc), vehicle: steroid suspending solution) 3 of 10.
Turning to `CCC(=O)NC`, the survivor count (dose: 1500.0 mg/kg/injection, schedule: Q01DX007 (ip), vehicle: other) is recorded as 2 of 6.
Take `Nc1cc(SCc2ccccc2)nc(N)n1`: the survivor count (dose: 150.0 mg/kg/injection, schedule: Q#A X014 (ip), vehicle: methylcellulose (MC)) is given as 3 of 6.
`N=[N+]=CC(=O)OCC(N)C(=O)O` (stereo not drawn): the T/C reads like this: (dose: 0.25 mg/kg/injection, schedule: Q#A X014 (ip), vehicle: methylcellulose (MC)) 46 [5 of 6 alive], 61, 72, 75, 77, 80, 83, 85, 86, 87, 89, 92, 94 % of control; (dose: 0.5 mg/kg/injection, schedule: Q#A X014 (ip), vehicle: methylcellulose (MC)) 43, 48 [6 of 7 alive], 52, 57 [6 of 7 alive], 64 [4 of 6 alive], 70 [6 of 7 alive], 73, 75, 84, 85, 89, 91, 120 % of control; under setting [2], 7, 7 [4 of 6 alive], 8 [6 of 7 alive], 14, 15 [5 of 6 alive], 22 [5 of 6 alive], 24, 36, 44, 47 [5 of 6 alive], 56, 67 % of control [5 of 7 alive]; under setting [3], 1 [4 of 6 alive], 2 [6 of 7 alive], 3 [4 of 6 alive], 4, 4 [4 of 6 alive], 7 [5 of 6 alive], 19, 30, 40 % of control [5 of 6 alive]; under setting [4], 1 [6 of 7 alive], 6 [6 of 7 alive], 10 % of control [5 of 6 alive]. In addition, the survivor count is, setting by setting: under setting [2], 3 of 6; under setting [3], 3 of 6; under setting [4], 1 of 6, 2 of 6, 3 of 6; (dose: 5.0 mg/kg/injection, schedule: Q#A X014 (ip), vehicle: methylcellulose (MC)) 2 of 6.
In the case of `C/C=C(/C)C(=O)O[C@H]1CCN2CC=C(COC(=O)[C@@](O)([C@H](C)OC)C(C)(C)O)[C@H]12`, the survivor count reads like this: (dose: 44.0 mg/kg/injection, schedule: Q01DX007 (ip), vehicle: carboxymethylcellulose (CMC)) 3 of 6; (dose: 66.0 mg/kg/injection, schedule: Q01DX007 (ip), vehicle: carboxymethylcellulose (CMC)) 0 of 6; (dose: 100.0 mg/kg/injection, schedule: Q01DX007 (ip), vehicle: carboxymethylcellulose (CMC)) 0 of 6; under setting [5], 0 of 6.
With `S=c1nc[nH]c2nc[nH]c12`, for the setting “dose: 29.0 mg/kg/injection, schedule: Q01DX007 (ip), vehicle: carboxymethylcellulose (CMC)”, the T/C is 42, 45, 64, 65 % of control. Further, the survivor count by setting is: (dose: 120.0 mg/kg/injection, schedule: Q01DX007 (ip), vehicle: other) 1 of 6; under setting [5], 0 of 6; (dose: 240.0 mg/kg/injection, schedule: Q01DX007 (ip), vehicle: other) 0 of 6.
`O=C1C=CC(=Nc2ccc3c(c2)C(Br)c2ccccc2-3)O1` (stereo not drawn): for the setting “dose: 37.5 mg/kg/injection, schedule: Q#A X014 (ip), vehicle: saline”, the survivor count is on record as 1 of 6.
For `NC1=CC(=O)c2ccccc2C1=O`, the survivor count (dose: 12.5 mg/kg/injection, schedule: Q01DX007 (ip), vehicle: other) is 2 of 6. In addition, the T/C (dose: 15.0 mg/kg/injection, schedule: Q01DX007 (ip), vehicle: other) is 131 % of control.
On to `C/C=C1\CN(C)[C@H]2Cc3c([nH]c4ccccc34)[C@@H](c3cc4[nH]c5c(c4cc3OC)CCN3C[C@H]4C[C@H](CC)[C@H]3[C@@]5(C(=O)OC)C4)C[C@H]1C2C(=O)OC` (stereo partly drawn), for which the T/C is 38 [5 of 6 alive], 46, 87, 116 % of control (dose: 27.0 mg/kg/injection, schedule: Q01DX007 (ip), vehicle: water) and 21, 40, 64, 68 % of control [5 of 6 alive] (dose: 40.0 mg/kg/injection, schedule: Q01DX007 (ip), vehicle: water). The survivor count (dose: 90.0 mg/kg/injection, schedule: Q01DX007 (ip), vehicle: water) was 1 of 6.
`COc1ccc2c(c[n+](C)c3c4cc5c(cc4ccc23)OCO5)c1OC`: the survivor count (dose: 200.0 mg/kg/injection, schedule: Q01DX007 (ip), vehicle: carboxymethylcellulose (CMC)) is listed as 3 of 6.
In the case of `CO[C@H]1C(=O)C[C@H]2[C@@H]3CC=C4C[C@@H](O)CC[C@]4(C)[C@H]3CC[C@]12C`, where the note is “dose: 20.0 mg/kg/injection, schedule: Q01DX007 (sc), vehicle: steroid suspending solution”, the T/C is 129 % of control.
With `CCCOC(=O)C1(N)CCCC1`, the survivor count (dose: 336.0 mg/kg/injection, schedule: Q01DX007 (ip), vehicle: saline) is listed as 2 of 6.
As to `CC1CN1P(=O)(N1CCCC1)N1CC1C` (stereo not drawn), the survivor count runs as follows: (dose: 23.5 mg/kg/injection, schedule: Q#A X014 (ip), vehicle: saline) 3 of 6; (dose: 105.0 mg/kg/injection, schedule: Q01DX007 (ip), vehicle: saline) 1 of 6.
For the molecule `COc1cc2c3c(c4ccc(OC)c(OC)c4c2cc1OC)CN1CCC[C@@H]1C3`, the survivor count (dose: 18.0 mg/kg/injection, schedule: Q01DX007 (ip), vehicle: water) is recorded as 1 of 6.
On to `Nc1nc(SN=Nc2ccc(S(=O)(=O)O)cc2)c2[nH]cnc2n1`, for which the survivor count is 3 of 6 (dose: 31.0 mg/kg/injection, schedule: Q01DX007 (ip), vehicle: other) and 2 of 6 (dose: 46.0 mg/kg/injection, schedule: Q01DX007 (ip), vehicle: other).
For the molecule `[Cu+2].[O-]c1ccc(Br)c2cccnc12.[O-]c1ccc(Br)c2cccnc12`, the survivor count is 1 of 6 (dose: 9.4 mg/kg/injection, schedule: Q01DX007 (ip), vehicle: carboxymethylcellulose (CMC)); 0 of 6 and 0 of 7 (dose: 14.0 mg/kg/injection, schedule: Q01DX007 (ip), vehicle: carboxymethylcellulose (CMC)); 0 of 7 (dose: 21.0 mg/kg/injection, schedule: Q01DX007 (ip), vehicle: carboxymethylcellulose (CMC)); 0 of 7 (dose: 32.0 mg/kg/injection, schedule: Q01DX007 (ip), vehicle: carboxymethylcellulose (CMC)); 0 of 7 (dose: 48.0 mg/kg/injection, schedule: Q01DX007 (ip), vehicle: carboxymethylcellulose (CMC)); 0 of 6 (dose: 48.0 mg/kg/injection, schedule: Q01DX007 (ip), vehicle: other).
